No constants are given. Whether binding was seen depends on the method and setting. Binding seen in cells or lysates may run through a third protein.
Molecular target: SIRT1 (UniProt Q96EB6)
Assay: co-IP; HEK 293 cells transiently transfected for 36 hours; 0.5 mg of nuclear protein incubated overnight with 2 µg of antibody against one partner or control IgG; eluted proteins immunoblotted

Chains of the proteins cited; added tags and fusions are not shown.
UniProt Q96EB6: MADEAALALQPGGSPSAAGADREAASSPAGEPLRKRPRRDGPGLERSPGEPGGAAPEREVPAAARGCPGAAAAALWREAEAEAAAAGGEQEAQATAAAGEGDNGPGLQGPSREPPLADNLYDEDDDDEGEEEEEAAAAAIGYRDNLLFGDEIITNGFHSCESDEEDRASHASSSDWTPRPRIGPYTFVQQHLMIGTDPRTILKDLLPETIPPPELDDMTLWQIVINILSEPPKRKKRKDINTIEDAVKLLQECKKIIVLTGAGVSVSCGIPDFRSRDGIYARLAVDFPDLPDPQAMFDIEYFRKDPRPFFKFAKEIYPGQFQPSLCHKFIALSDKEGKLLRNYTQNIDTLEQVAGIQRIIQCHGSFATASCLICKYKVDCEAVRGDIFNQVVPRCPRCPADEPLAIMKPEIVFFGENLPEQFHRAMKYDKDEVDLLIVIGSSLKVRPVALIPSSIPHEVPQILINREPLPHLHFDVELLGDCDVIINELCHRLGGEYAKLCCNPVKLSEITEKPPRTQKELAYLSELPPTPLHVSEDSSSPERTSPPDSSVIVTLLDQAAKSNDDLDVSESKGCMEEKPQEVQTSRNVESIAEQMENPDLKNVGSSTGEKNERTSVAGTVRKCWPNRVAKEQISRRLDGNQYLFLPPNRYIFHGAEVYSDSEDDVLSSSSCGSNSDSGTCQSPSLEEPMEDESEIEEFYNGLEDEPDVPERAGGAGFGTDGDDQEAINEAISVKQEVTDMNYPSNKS

binding: no binding
B1: Miz1 (protein, UniProt Q13105 1-803)
chain: MDFPQHSQHVLEQLNQQRQLGLLCDCTFVVDGVHFKAHKAVLAACSEYFKMLFVDQKDVVHLDISNAAGLGQVLEFMYTAKLSLSPENVDDVLAVATFLQMQDIITACHALKSLAEPATSPGGNAEALATEGGDKRAKEEKVATSTLSRLEQAGRSTPIGPSRDLKEERGGQAQSAASGAEQTEKADAPREPPPVELKPDPTSGMAAAEAEAALSESSEQEMEVEPARKGEEEQKEQEEQEEEGAGPAEVKEEGSQLENGEAPEENENEESAGTDSGQELGSEARGLRSGTYGDRTESKAYGSVIHKCEDCGKEFTHTGNFKRHIRIHTGEKPFSCRECSKAFSDPAACKAHEKTHSPLKPYGCEECGKSYRLISLLNLHKKRHSGEARYRCEDCGKLFTTSGNLKRHQLVHSGEKPYQCDYCGRSFSDPTSKMRHLETHDTDKEHKCPHCDKKFNQVGNLKAHLKIHIADGPLKCRECGKQFTTSGNLKRHLRIHSGEKPYVCIHCQRQFADPGALQRHVRIHTGEKPCQCVMCGKAFTQASSLIAHVRQHTGEKPYVCERCGKRFVQSSQLANHIRHHDNIRPHKCSVCSKAFVNVGDLSKHIIIHTGEKPYLCDKCGRGFNRVDNLRSHVKTVHQGKAGIKILEPEEGSEVSVVTVDDMVTLATEALAATAVTQLTVVPVGAAVTADETEVLKAEISKAVKQVQEEDPNTHILYACDSCGDKFLDANSLAQHVRIHTAQALVMFQTDADFYQQYGPGGTWPAGQVLQAGELVFRPRDGAEGQPALAETSPTAPECPPPAE

Source: article PMC3116909
